Reference: PubChem BioAssay AID540256 (National Center for Advancing Translational Sciences (NCATS), 2011)
Among all 300,000 compounds or so, about 3,700 (1.2%) were called active. Inconclusive means that the source gave no clear call. Such entries were picked first, then a sample of the others. Calls come from the whole dose curve; tested in HEK293 cells. Where the call is inconclusive, the potency comes from a doubtful curve fit.

Experiment: qHTS for Inhibitors of binding or entry into cells for Lassa Virus; note: nearly all actives have a fitted effect of over 50% in size
Conditions: Lassa virus pseudotype entry inhibition, cell reporter; activity change, negative = inhibition: at 37.9 µM (top of the series) unless noted
% is set by controls: 0 for no effect and ±100 for the full control effect; potency is the fitted concentration of half-maximal effect.

| Compound | Potency | activity change, negative = inhibition |
| --- | --- | --- |
| COc1ccc(Cn2cccc(NC(=O)Nc3cccc(C#N)c3)c2=O)cc1 | inconclusive: 29.1 µM [inhibitor, single point] |  |
| CCc1nc(SCC(=O)NC2CC2)c2c(C)c(C)sc2n1 |  | inactive: 7.47% |
| CCOc1ccccc1CNC(=O)CN1C(=O)c2cccnc2Oc2ccc(C)cc21 | inconclusive: 35.5 µM [inhibitor, single point] |  |
| COC(C(=O)Nc1ccnn1C1CCN(Cc2ccc(C)o2)CC1)c1ccccc1 (centres undefined) | inconclusive: 3.55 µM [inhibitor, partial curve, poor fit] |  |
| COc1ccc2c(c1)C(NC(C)=O)CCc1cc(OC)c(OC)c(OC)c1-2 (centres undefined) | inconclusive: 0.0708 µM [inhibitor, full curve, poor fit] |  |
| Cc1nn(-c2ccccc2)c(-n2cccc2)c1C(=O)O | inconclusive: 3.55 µM [activator, partial curve, poor fit] |  |
| CCOC(=O)C1=C(N)OC2=C(C(=O)CC(C)(C)C2)C1c1ccc(CC)s1 (centres undefined) |  | inactive: 25.2% [at 46.1 µM] |
| O=C(CN1C(=O)COc2ccc(Cl)cc21)Nc1cccc(C(=O)O)c1 |  | inactive: 0.0622% [at 46.1 µM] |
| Clc1ccccc1/C=N/NC1=Nc2cccc3cccc1c23 | inconclusive: 12.6 µM [inhibitor, single point] |  |
| Cc1c(C(=O)N2CCN(c3ncccn3)CC2)oc2c(Cl)cccc12 | inconclusive: 35.5 µM [inhibitor, single point] |  |
| O=C(NCC1COc2ccccc2O1)c1ccccc1 (centres undefined) |  | inactive: 3.29% |
| Cc1ccc(Cn2ncc3c(N4CCN(c5ccccc5C)CC4)ncnc32)cc1 | inconclusive: 14.1 µM [inhibitor, partial curve, poor fit] |  |
| COc1ccccc1C(=O)NCCN=C1NS(=O)(=O)c2ccccc21 | inconclusive: 5.62 µM [inhibitor, single point] |  |
| O=C(N/N=C/C(Br)=C/c1ccccc1)c1cnccn1 | inconclusive: 35.5 µM [inhibitor, single point] |  |
| Cc1onc(-c2ccccc2Cl)c1C(=O)Nc1ccc2c(c1)OCO2 | inconclusive: 3.98 µM [activator, single point] |  |
| COc1ccc(CNC(=O)CCc2c(C)nc3c4cccnc4nn3c2C)cc1 |  | inactive: 0.148% [at 46.1 µM] |
| Cc1nc(SCC(=O)NC(=O)NCc2ccco2)nc(C)c1C |  | inactive: 29.4% |
| O=C(CSc1nnc2ccc3ccccc3n12)N1CCOCC1 | inconclusive: 23.1 µM [activator, partial curve, poor fit] |  |
| COc1cccc(C(=O)NNC(=S)NC2CCCCC2)c1 | inconclusive: 2.06 µM [activator, partial curve] |  |
| CC(=O)Nc1nnc(/C=C/c2cccc([N+](=O)[O-])c2)s1 | inconclusive: 5.62 µM [activator, partial curve] |  |
| CCc1ccc(S(=O)(=O)/N=C2/C=C(Sc3ncn[nH]3)C(=O)c3ccccc32)cc1 | active: 12.6 µM |  |
| CS(=O)(=O)N(CC(=O)Nc1ccc(CC#N)cc1)c1ccc(C23CC4CC(CC(C4)C2)C3)cc1 | inconclusive: 32.6 µM [inhibitor, single point] |  |
| COC(=O)c1sc2nc(N3CCCCC3)c3c(c2c1N)CCCC3 | inconclusive: 8.91 µM [inhibitor, partial curve, poor fit] |  |

| Compound | Potency | activity change, negative = inhibition |
| --- | --- | --- |
| O=C(CNc1ccc(Br)cc1)c1ccc(Br)s1 | inconclusive: 31.6 µM [activator, single point] |  |
| Cc1ccc(NC(=O)CCSc2nnc(-c3ccco3)o2)cc1 |  | inactive: 5.42% |
| Cc1ccccc1OCCNCC(C)O (centres undefined) | inconclusive: 3.55 µM [activator, partial curve, poor fit] |  |
| COc1cccc(NC(=O)CN(C)CC(=O)Nc2ccc(C)cc2Cl)c1 |  | inactive: -10.6% |
| Nc1ccc(C(=O)n2c3ccccc3c3ccccc32)cc1 | inconclusive: 3.55 µM [inhibitor, partial curve] |  |
| CCCCCC(=O)N/N=C/c1ccc([N+](=O)[O-])o1 | inconclusive: 16.4 µM [inhibitor, single point] |  |
| CCOC(=O)C1CCN(C(=O)c2cc3ccc(OC)cc3[nH]2)CC1 | inconclusive: 1.41 µM [activator, partial curve, poor fit] |  |
| CC1CC1C(=O)OCC(=O)Nc1ccccc1Oc1ccccc1 (centres undefined) | inconclusive: 2.06 µM [inhibitor, full curve, poor fit] |  |
| O=C(NCc1cccs1)c1ccc(CSc2nc3cccnc3n2Cc2ccc(F)cc2)cc1 | inconclusive: 35.5 µM [inhibitor, single point] |  |
| COC(=O)c1ccc(CN2C(=O)c3ccccc3S2(=O)=O)cc1 |  | inactive: -14.6% |
| CC(=O)N1CCN(c2ccc([N+](=O)[O-])cc2)CC1 |  | inactive: 7.38% [at 46.1 µM] |
| Cc1ccc(-c2csc(/C(C#N)=C(\O)CCl)n2)cc1 | inconclusive: 35.5 µM [activator, single point] |  |
| COc1ccc(NC(=O)c2ccco2)cc1NC(=O)c1ccc(Br)o1 |  | inactive: -6.78% |
| COc1ccc(CC2(CO)CCN(Cc3cccnc3)CC2)cc1 |  | inactive: 5.21% |
| COC(=O)c1ccc(C(C(=O)NC2CCCCC2)N(Cc2ccccc2)C(=O)Cc2cccs2)cc1 (centres undefined) | inconclusive: 6.31 µM [inhibitor, single point] |  |
| Cc1nc2c(C)cccc2cc1C(=O)N/N=C/c1ccc(N(C)C)cc1 | inconclusive: 23.1 µM [inhibitor, single point] |  |
| COc1ccc(NC(=O)CSc2nc3ccccc3c(=O)n2CCCN2CCC(C)CC2)c(OC)c1 | inconclusive: 39.8 µM [inhibitor, partial curve, poor fit] |  |
| COc1cccc(CNC(=O)c2cccc(S(=O)(=O)N3CCN(c4ccc(F)cc4)CC3)c2)c1 | inconclusive: 8.91 µM [inhibitor, partial curve] |  |
| Cc1ccn2c(Nc3ccc4c(c3)OCO4)c(-c3ccc(Cl)cc3)nc2c1 | inconclusive: 1.26 µM [activator, full curve, poor fit] |  |
| COc1cccc(CNC(=O)CN2CCCN(Cc3ccccc3)S2(=O)=O)c1 |  | inactive: -25.6% [at 46.1 µM] |
| Cc1cccc(NC(=O)c2n[nH]c([N+](=O)[O-])c2Br)c1C | inconclusive: 15.8 µM [inhibitor, single point] |  |
| CC(C)(C)NCC(O)c1ccc(O)c(CO)c1 (centres undefined) | inconclusive: 29.1 µM [inhibitor, partial curve, poor fit] |  |
| Cc1[nH]c2ccccc2c1C(O)c1ccncc1 (centres undefined) |  | inactive: -6.18% |

Full records, looked up by structure.
COC(=O)c1ccc(C(C(=O)NC2CCCCC2)N(Cc2ccccc2)C(=O)Cc2cccs2)cc1 (centres undefined) is entered as Potency: inconclusive: 6.31 µM [inhibitor, single point]
COc1cccc(CNC(=O)CN2CCCN(Cc3ccccc3)S2(=O)=O)c1 is entered as activity change, negative = inhibition: inactive: -25.6% [at 46.1 µM]

Remaining list, next part:

| Compound | Potency | activity change, negative = inhibition |
| --- | --- | --- |
| CCCCCCCCNS(=O)(=O)CCNCc1ccccc1OC | inconclusive: 0.0125 µM [activator, full curve, poor fit] |  |
| CCN(CC)CCSc1nnc2c3cc(C)ccc3n(Cc3ccccc3)c2n1 | inconclusive: 35.5 µM [inhibitor, single point] |  |
| COc1cccc(N/C=C/C(=O)c2ccc(Br)cc2)c1 | inconclusive: 1.26 µM [activator, single point] |  |
| COc1ccc(C2=NC3(CCCCCC3)N(CC(=O)Nc3cccc(Cl)c3)C2=O)cc1 | inconclusive: 3.98 µM [inhibitor, partial curve, poor fit] |  |
| O=C(NCCOc1ccccc1)c1cc2ccccc2o1 | inconclusive: 0.631 µM [activator, full curve] |  |
| CCN1CCN(CC(=O)c2c(C)n(Cc3ccccc3)c3ccc(OC)cc23)CC1 |  | inactive: -3.07% |
| NC(=O)NC(=O)COC(=O)c1ccc(Cl)c(S(=O)(=O)N(Cc2ccccc2)c2ccc(Cl)cc2)c1 | inconclusive: 32.6 µM [inhibitor, single point] |  |
| CC(=O)Oc1ccc(/C=N/NS(=O)(=O)c2ccccc2)cc1 |  | inactive: -9.37% [at 46.1 µM] |
| Cc1cccc(-c2cccc(NC(=O)C3CCCN(C(=O)c4ocnc4C)C3)c2)c1 (centres undefined) | active: 3.55 µM |  |
| COc1ccccc1N1CCN(C(=O)c2ccc(N(C)S(=O)(=O)c3ccccc3)cc2)CC1 | inconclusive: 20 µM [inhibitor, partial curve, poor fit] |  |
| CCCCC(=O)Nc1nnc(SCc2cc(=O)n3cc(C)ccc3n2)s1 |  | inactive: 18.6% [at 46.1 µM] |
| CCC(C)N(C(=O)COC(=O)c1nc(Cl)ccc1Cl)C1CCS(=O)(=O)C1 (centres undefined) | inconclusive: 35.5 µM [inhibitor, single point] |  |
| C=C(C)c1cccc(C(C)(C)NC(=O)N2CCCCC2CC)c1 (centres undefined) |  | inactive: -21.6% |
| CCOC(=O)c1nn2c(C(F)(F)F)cc(-c3ccc(C)cc3)nc2c1Cl |  | inactive: 2.63% [at 46.1 µM] |
| O=C(Nc1ccc(F)c(F)c1)c1cc(S(=O)(=O)NCc2ccc3c(c2)OCO3)ccc1F |  | inactive: 23.1% [at 46.1 µM] |
| Cc1cccc(NS(=O)(=O)c2cc(C(=O)NCCC3=CCCCC3)ccc2Cl)c1 | inconclusive: 18.3 µM [inhibitor, single point] |  |
| COc1ccc(CN(C)C(=O)c2ccccc2Sc2ccccc2C#N)cc1OC | inconclusive: 22.4 µM [inhibitor, partial curve, poor fit] |  |
| O=C(N/N=C\c1ccc2c(c1)OCO2)c1ccc(Cn2cc(Br)c([N+](=O)[O-])n2)o1 |  | inactive: 5.09% [at 46.1 µM] |
| O=C(CC1S/C(=N/N=C/c2cccs2)NC1=O)Nc1ccc(Cl)c(Cl)c1 (centres undefined) | inconclusive: 35.5 µM [inhibitor, single point] |  |
| COc1cc2nc(CN3CC=C(c4ccccc4)CC3)[nH]c(=O)c2cc1OC | inconclusive: 3.98 µM [inhibitor, partial curve, poor fit] |  |
| CCOC(=O)C1CN(S(=O)(=O)c2ccc(OC)cc2)c2cc(CC(=O)OC)ccc2O1 (centres undefined) | inconclusive: 3.66 µM [inhibitor, partial curve] |  |
| O=C(N/N=C/c1ccc2c(c1)OCO2)c1cccc2ccccc12 |  | inactive: -16.7% [at 46.1 µM] |
| CCOc1ccc(NC(=O)C(c2ccccn2)N(C(=O)CCl)c2ccc(OC)cc2)cc1 (centres undefined) |  | inactive: 28.5% |
